Our source for the cell number change and AC50 values is PubChem BioAssay AID2685 (National Center for Advancing Translational Sciences (NCATS), 2010).

The list shows a part of the results. Further columns of the screen follow, without active or inactive calls. Most of these compounds were active or inconclusive in the main read-out, so they are no random draw. The note in brackets gives the kind of curve behind each potency; many fits are weak.

The experiment is described as follows: qHTS Assay for Lipid Storage Modulators in Drosophila S3 Cells.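 On cell number change: cells counted by Cell Tracker Red CMTPX staining in the red channel.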 The following applies: BODIPY lipid droplet fluorescence, 18-24 h; for cell number change: measured here: cell count max response, cells fed with added oleic acid. The procedure, abridged: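 Laser-scanning cytometry quantifies lipid droplet accumulation (500–530 nm total intensity; droplet/cell object ratio) in oleic acid-fed (400 uM added) Drosophila S3 cells treated with a concentration series. 20 uM Triacsin C defined 100% inhibition.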
Background: qHTS replaces the single test concentration by a dilution series.

The mark [1] stands for this setting: measured here: cell number channel AC50, cells fed with added oleic acid.
The mark [2] stands for this setting: measured here: lipid fluorescence (Fed channel) AC50, cells fed with added oleic acid.

For `CCn1c(/C=C/N(C)c2ccccc2)[n+](CC)c2ccc(Cl)cc21`, the cell number change is -37.3%. Also, under setting [1], the AC50 is 20.6 µM [falling, single point]. In addition, the AC50 under setting [2] is 29.1 µM [falling, single point]. As for `COc1ccc(-c2noc(CN(C(=O)C(C)(C)C)C(C)C)n2)cc1`, under setting [1], the AC50 was 0.184 µM [rising, full curve, poor fit]. In the case of `Cc1cccc(-c2noc(CCCOc3ccc(Cl)cc3Cl)n2)c1`, the cell number change worked out at 23.3%. Moreover, under setting [2], the AC50 is 6.51 µM [rising, single point]. Consider `CC1CN(CC(=O)c2c(N)n(Cc3ccccc3)c(=O)n(C)c2=O)CC(C)O1` (stereo not given), for which the cell number change is 11.2%. Besides, under setting [2], the AC50 is 11.6 µM [falling, partial curve]. In the case of `Cc1ccc(C(=O)NNC(=O)CSc2nnc(C3CC3)n2C)cc1`, the cell number change worked out at 30%. Also, under setting [1], the AC50 is 1.64 µM [rising, full curve, poor fit].

As to `CC1CCCN(C(=O)c2ccc3c(=O)n(Cc4ccc5c(c4)OCO5)c(=S)[nH]c3c2)C1` (stereo not given), the cell number change was -12%. For the compound `CCOC(=O)C1CCN(C(=O)c2oc3ccc(S(=O)(=O)N4CC(C)CC(C)C4)cc3c2C)CC1` (stereo not given), the cell number change was -21.4%. Moreover, the AC50 under setting [2] is 0.461 µM [falling, single point]. For `CS(=O)(=O)N1CCN(c2ccc([N+](=O)[O-])c(SCc3ccco3)c2)CC1`, the cell number change was 6.06%. The AC50 under setting [1] is 0.651 µM [falling, single point]. Regarding `CCN(c1ccc(C(=O)CN2C(=O)NC3(CCOc4ccccc43)C2=O)cc1)S(C)(=O)=O` (stereo not given), the cell number change was -11.7%. Moreover, under setting [1], the AC50 was 6.51 µM [falling, single point]. Besides, the half-maximal activity concentration (AC50) under setting [2] is 6.51 µM [falling, partial curve, poor fit].

In the case of `COc1cc(=O)n(C)c2c(OCC3OC(C)(C)OC3(C)C)cccc12` (stereo not given), the cell number change was -67.1%. Further, under setting [1], the AC50 is 3.26 µM [falling, partial curve]. Also, the concentration at half-maximal activity (AC50) under setting [2] is 0.291 µM [falling, partial curve, poor fit]. In the case of `COc1ccc(-n2nc(C(=O)NCC(=O)Nc3cccc(C)n3)c3ccccc3c2=O)cc1`, the cell number change was 14.3%. Moreover, under setting [1], the half-maximal activity concentration (AC50) is 0.082 µM [rising, full curve, poor fit]. In addition, the AC50 under setting [2] is 0.13 µM [rising, full curve, poor fit]. Regarding `CCCNC(=O)Cc1c(C)oc2ccccc12`, the cell number change was found to be 17.1%. Turning to `Cc1ccc(N2C(=O)C3C4C=CC(CC4)C3C2=O)cc1Cl` (stereo not given), the cell number change was 20.2%.

Turning to `O=C1c2ccccc2C(O)(Cc2ccccc2)N1c1ccc2c(c1)OCO2` (stereo not given), the AC50 under setting [1] was 2.59 µM [rising, partial curve] and the half-maximal activity concentration (AC50) under setting [2] is 2.91 µM [rising, partial curve].

As for `CC(NS(=O)(=O)/C=C/c1ccccc1)c1ccccc1` (stereo not given), the cell number change was determined as 28.4%. As for `CCOC(=O)c1c(-c2ccccc2Cl)cn2ccccc12`, the half-maximal activity concentration (AC50) under setting [1] was 0.58 µM [falling, single point].

A word on the AC50: it is the midpoint of the concentration-response curve, whichever way the signal moves. A low value points to greater potency.
